Source: PubChem BioAssay AID1671190 (National Center for Advancing Translational Sciences (NCATS), 2021)
Hit rate of the full screen: of about 580,000 compounds, about 6,100 (1.1%) were called active. Inconclusive means that the source gave no clear call. Such entries were picked first, then a sample of the others. Calls come from the whole dose curve; as a rule, active = well fitted inhibition curve with a large enough effect; inconclusive = small, poorly fitted or top-dose-only effect, or another doubt; inactive = no such curve, though single readings can be large or run the other way. Potencies beside an inconclusive call are fits to weak or partial responses and may not hold up.
% is set by controls: 0 for no effect and ±100 for the full control effect; potency is the fitted concentration of half-maximal effect.

Protein sequences, listed by entry. Tags and fused reporters are not part of them.
UniProt P18054, whole entry, looked up: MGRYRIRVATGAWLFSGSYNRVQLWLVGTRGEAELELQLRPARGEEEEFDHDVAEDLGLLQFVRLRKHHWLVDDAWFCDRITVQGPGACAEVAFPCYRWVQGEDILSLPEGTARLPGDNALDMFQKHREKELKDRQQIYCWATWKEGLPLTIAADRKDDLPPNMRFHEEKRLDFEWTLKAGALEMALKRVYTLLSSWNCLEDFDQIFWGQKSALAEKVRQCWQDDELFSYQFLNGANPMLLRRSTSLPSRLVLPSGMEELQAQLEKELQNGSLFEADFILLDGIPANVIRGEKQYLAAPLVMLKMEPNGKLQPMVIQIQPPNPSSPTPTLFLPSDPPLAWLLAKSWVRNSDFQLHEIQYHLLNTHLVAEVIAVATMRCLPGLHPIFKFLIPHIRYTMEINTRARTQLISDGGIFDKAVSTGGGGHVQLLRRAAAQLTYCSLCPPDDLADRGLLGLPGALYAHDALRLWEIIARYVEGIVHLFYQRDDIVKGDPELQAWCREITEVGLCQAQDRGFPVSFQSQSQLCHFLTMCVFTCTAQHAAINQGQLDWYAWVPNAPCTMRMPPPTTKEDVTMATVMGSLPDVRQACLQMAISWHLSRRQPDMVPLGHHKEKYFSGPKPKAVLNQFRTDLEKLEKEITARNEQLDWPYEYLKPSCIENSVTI

What follows are compounds tested against Polyunsaturated fatty acid lipoxygenase ALOX12 (Homo sapiens) (UniProt P18054) (assay: Primary qHTS assay for inhibitors of human arachidonate 12S-lipoxygenase (ALOX12): Round 2). Conditions: purified 12hLO, xylenol orange hydroperoxide absorbance; activity change, negative = inhibition: at 108 µM (top of the series) unless noted.
Procedure, shortened: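 Purified human 12hLO (150 nM final) in 25 mM Hepes, 0.01% Triton X-100, pH 7.0 was preincubated 15 min at room temperature with compound. Then 40 uM arachidonic acid was added, 30 min. Hydroperoxide was read by Fe-XO absorbance ratio 573/405 nm.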
With `CSc1ccccc1OCc1cc(C(=O)N2CCN(c3ccccc3)CC2C)no1` (stereo unspecified) the Potency was inconclusive: 39.8 µM [inhibitor, partial curve, poor fit].
With `CCCOP(=O)(c1ccc(N(C)C)cc1)C(O)c1ccc(Cl)cc1Cl` (stereo unspecified) the Potency was inconclusive: 10 µM [inhibitor, partial curve, poor fit].
With `O=C(NCc1ccccc1)C1=C[C@H](c2ccc(C(F)(F)F)cc2)C[C@H](OCc2ccc(CO)cc2)O1` the “activity change, negative = inhibition” value was inactive: -18.5%.
`Cc1cc(C)c(NC(=O)CSc2nc(COc3ccccc3)nc3ccccc23)c(C)c1` was tested, and the “activity change, negative = inhibition” value was inactive: 19%.
In the case of `COCCNC(=O)C[C@@H]1O[C@H](Cn2cc(CN(C)Cc3ccccc3)nn2)[C@@H](O)[C@H]1O`, the Potency is reported as inconclusive: 28.2 µM [inhibitor, full curve].
In the case of `CC(C)C(NC(=O)Cn1cnc(C#N)n1)c1ccccc1` (stereo unspecified), the “activity change, negative = inhibition” value is reported as inactive: 1.15%.
In the case of `COc1ccc(C2=NN(C(=O)c3cccs3)C(c3ccccc3O)C2)cc1` (stereo unspecified), the “activity change, negative = inhibition” value is reported as inactive: -2.63%.
For `Cc1ccc(S(=O)(=O)c2nc(-c3ccccc3Cl)oc2N2CCCCCC2)cc1`, the “activity change, negative = inhibition” value was inactive: -17.8%.
For `N#Cc1ccccc1NC(=O)COC(=O)c1ccc2c(c1)NC(=O)CS2`, the “activity change, negative = inhibition” value was inactive: 37%.
`COc1cc(C2CC(=O)Oc3ccc(C(C)(C)C)cc32)cc(OC)c1OC` (stereo unspecified) was tested, and the Potency was inconclusive: 89.1 µM [inhibitor, single point].
`O=C(NCCc1nc(-c2cccnc2)no1)C1CC2(CCNCC2)CN1` (stereo unspecified) was tested, and the Potency was inconclusive: 5.62 µM [inhibitor, full curve].
In the case of `CC(CN1CCN(C)CC1)OC(=O)c1ccccc1` (stereo unspecified), the Potency is reported as inconclusive: 56.2 µM [inhibitor, partial curve, poor fit].
`O=C(c1cc2ccccc2oc1=O)N1CCC2(CCCN(Cc3ccccc3F)C2)C1` (stereo unspecified) was tested, and the Potency was inconclusive: 6.31 µM [inhibitor, partial curve, poor fit].
In the case of `CC(C)OC(=O)C(=O)NNc1ccccc1`, the Potency is reported as inconclusive: 31.6 µM [inhibitor, partial curve, poor fit].
In the case of `CN(C)CCN1CCN(C2CN(Cc3cn(Cc4ccccc4)nn3)S(=O)(=O)C2)CC1` (stereo unspecified), the Potency is reported as inconclusive: 11.2 µM [inhibitor, full curve].
In the case of `Cc1ccc(NC(=S)N(Cc2ccccc2)C(C)C)cc1`, the Potency is reported as inconclusive: 70.8 µM [inhibitor, partial curve, poor fit].
`O=C(c1cccc(F)c1)N1CCC(c2n[nH]c(=O)n2-c2ccccc2)CC1` was tested, and the Potency was inconclusive: 7.94 µM [inhibitor, full curve, poor fit].
In the case of `COc1cc2oc(=O)c(CC(=O)N3CCCCC3)c(C)c2cc1OC`, the Potency is reported as “inactive”.
For `Cc1cc(Cl)ccc1Oc1nccc(N(C)C)c1C#N`, the “activity change, negative = inhibition” value was inactive: 8.83%.
In the case of `CCN(c1ccccc1)S(=O)(=O)c1cccc(C(=O)NCC(c2ccco2)N2CCCC2)c1` (stereo unspecified), the “activity change, negative = inhibition” value is reported as inactive: 0.998%.
With `Fc1ccc(-n2c(-c3ccco3)n[nH]c2=S)cc1` the Potency was inconclusive: 25.1 µM [inhibitor, partial curve, poor fit].
In the case of `COc1ccc2c(-c3ccccc3)cc(SCC(=O)N3CCOC(C)C3)nc2c1` (stereo unspecified), the “activity change, negative = inhibition” value is reported as inactive: 4.91%.
With `O=C(NCc1cccnc1)[C@@H]1C[C@@H](O)CN1C1CCN(C(=O)c2cccs2)CC1` the “activity change, negative = inhibition” value was inactive: 62.2%.
`O=C(/C=C/c1cccc(Br)c1)c1cccc(O)c1` was tested, and the Potency was inconclusive: 50.1 µM [inhibitor, partial curve, poor fit].
For `CC(=O)Nc1ccc(S(=O)(=O)Nc2nc3ccccc3nc2Nc2cccc(Cl)c2)cc1`, the Potency was active: 15.8 µM.
`O=C(NCCc1ccccc1Cl)c1ccc2nc3ccccc3c(=O)n2c1` was tested, and the “activity change, negative = inhibition” value was inactive: 0%.
With `COc1ccc(NC2CCCN(C(=O)c3cccnc3)C2)cc1` (stereo unspecified) the “activity change, negative = inhibition” value was inactive: 4.26%.
For `COc1ccc(/C(C)=N/NC(=O)CNC(=O)CCc2ccccc2)c(OC)c1`, the “activity change, negative = inhibition” value was inactive: 0%.
`Cc1ccc2[nH]c(=S)nc(-c3ccccc3)c2c1` was tested, and the Potency was inconclusive: 44.7 µM [inhibitor, partial curve, poor fit].
In the case of `O=C(c1ccccc1F)N(C1CCCC1)C1CC1`, the Potency is reported as inconclusive: 28.2 µM [inhibitor, partial curve, poor fit].
In the case of `Clc1ccccc1COc1ccc(CNCc2cccnc2)cc1`, the Potency is reported as inconclusive: 44.7 µM [inhibitor, partial curve, poor fit].
With `COc1ccc(C2CC(=O)C(c3ccc4ccccc4c3)=CN2Cc2ccccc2)cc1` (stereo unspecified) the “activity change, negative = inhibition” value was inactive: -6.09%.
With `Clc1ccc(Nc2nc(-c3cccs3)cs2)nc1` the Potency was inconclusive: 25.1 µM [inhibitor, full curve].
With `CC(C)CC(=O)N1CCN(Cc2ccncc2)CC1` the Potency was inconclusive: 3.16 µM [inhibitor, full curve].
`C/C(=C\C(=O)O)C(=O)Nc1cccc(C(F)(F)F)c1` was tested, and the Potency was inconclusive: 44.7 µM [inhibitor, partial curve, poor fit].
With `COc1ccc(OC)c(C2C(C(=O)c3ccco3)=C(O)C(=O)N2c2nc3ccc(C)cc3s2)c1` (stereo unspecified) the Potency was inconclusive: 63.1 µM [inhibitor, partial curve, poor fit].
With `Cc1nccn1CCCC(=O)N1C[C@@H](F)C[C@H]1CNC(=O)CC(C)C` the “activity change, negative = inhibition” value was inactive: -0.33%.
With `O=C(C=Cc1ccc(O)cc1)c1ccc(O)cc1O` the Potency was active: 7.94 µM.
In the case of `CCOC(=O)c1ccc(NC(=O)C2COc3ccccc3O2)cc1` (stereo unspecified), the “activity change, negative = inhibition” value is reported as inactive: 5.54%.
`CN(C)C1CCCN(C(=O)c2ccc(CN3CCCC3)o2)CC1` (stereo unspecified) was tested, and the “activity change, negative = inhibition” value was inactive: 6.08%.
In the case of `COc1ccc(NC(=O)c2cc(Br)c(Br)s2)cn1`, the Potency is reported as active: 12.6 µM.
`O=C(CCCSc1nc2ccccc2s1)Nc1ccc(F)c(F)c1F` was tested, and the Potency was inconclusive: 112 µM [inhibitor, partial curve, poor fit].
For `CCC1Oc2ccc(NC(=O)c3ccc(OC)c(OC)c3)cc2CN(Cc2ccc(Cl)cc2)C1=O` (stereo unspecified), the Potency was inconclusive: 22.4 µM [inhibitor, full curve, poor fit].
For `Cc1ncc2n1C(=O)N(C1CCN(Cc3cccc(C(F)(F)F)c3)CC1)C2`, the Potency was “inactive”.
In the case of `CCOCCCNC(=O)c1ccc(CS(=O)(=O)Cc2cccc(C)c2)o1`, the “activity change, negative = inhibition” value is reported as inactive: 20.7%.
In the case of `Cc1ccc2oc(=O)cc(CN3CCN(c4ccccn4)CC3)c2c1`, the Potency is reported as inconclusive: 12.6 µM [inhibitor, full curve, poor fit].
`Cc1cccc(N(C)S(=O)(=O)c2cc3c(cc2C)n(C)c(=O)c(=O)n3C)c1` was tested, and the “activity change, negative = inhibition” value was inactive: 417%.
For `Cc1ccc(CN2CC(C(=O)N(C)CC(=O)Nc3ccc(Br)cc3C)CC2=O)cc1` (stereo unspecified), the Potency was inconclusive: 28.2 µM [inhibitor, partial curve].
In the case of `COCCNC(=S)N1CCC(C(=O)c2ccc(Cl)cc2)CC1`, the “activity change, negative = inhibition” value is reported as inactive: 1.22%.
`Cc1c(Cl)cccc1NC(=S)N1CCCN(Cc2ccccc2F)C1` was tested, and the Potency was inconclusive: 39.8 µM [inhibitor, partial curve, poor fit].
`COc1cc(NC(=O)Cn2cnc(C(=O)Nc3ccc(C)c(C)c3)n2)cc(OC)c1OC` was tested, and the Potency was inconclusive: 79.4 µM [inhibitor, single point].
In the case of `Cc1cc(C)c2c(c1)-c1c(ssc1=S)C(C)(C)N2C(=O)CN1C(=O)c2ccccc2C1=O`, the Potency is reported as inconclusive: 35.5 µM [inhibitor, partial curve].
For `COP(=O)(OC)c1nc(Cc2cccc3ccccc23)oc1NCc1ccc2c(c1)OCO2`, the Potency was inconclusive: 12.6 µM [inhibitor, full curve, poor fit].
In the case of `OC(C#CCCN1CCCCC1)(c1ccccc1)c1ccccc1`, the Potency is reported as inconclusive: 126 µM [inhibitor, partial curve, poor fit].
For `COc1cccc(Nc2nc(N)c(C(=O)c3cc(C)c(C)cc3C)s2)c1`, the Potency was inconclusive: 50.1 µM [inhibitor, partial curve, poor fit].
For `CC(=O)C1=C(C)NC(SCC(=O)c2ccc(Cl)c(Cl)c2)=C(C#N)C1c1ccco1` (stereo unspecified), the Potency was inconclusive: 39.8 µM [inhibitor, partial curve, poor fit].
For `C=CCOc1ccccc1CN(CC)C(=O)C1CCN(c2ncccn2)CC1`, the Potency was inconclusive: 56.2 µM [inhibitor, partial curve, poor fit].
With `COc1ccc(OCC(=O)n2nc(C)c(S(=O)(=O)N3CCc4ccccc4C3)c2C)cc1` the Potency was inconclusive: 44.7 µM [inhibitor, partial curve, poor fit].
`O=C(NCCCn1ccnc1)c1cn(-c2ccccc2)nc1-c1ccc(F)cc1` was tested, and the “activity change, negative = inhibition” value was inactive: 0.386%.
For `Cc1cc(NC(=O)c2ccc3c(c2)C(=O)N(C)C3=O)no1`, the “activity change, negative = inhibition” value was inactive: 0%.
`COc1ccc(-c2ccc(C#N)c(SCC(=O)NCCc3ccccc3)n2)cc1` was tested, and the “activity change, negative = inhibition” value was inactive: -0.0263%.
In the case of `CN1CCCC2(Cc3ccccc3CN(C(=O)C3CCCC3)C2)C1` (stereo unspecified), the activity change, negative = inhibition is reported as inactive: 9.65% [at 6.33 µM].
In the case of `CCOc1ccc(C(=O)Nc2ccc3oc(-c4ccncc4)nc3c2)cc1[N+](=O)[O-]`, the Potency is reported as inconclusive: 25.1 µM [inhibitor, partial curve, poor fit].
`CSc1cccc(NC(=O)c2ccccc2N(C)S(C)(=O)=O)c1` was tested, and the Potency was inconclusive: 50.1 µM [inhibitor, partial curve, poor fit].
`c1ccc(C2CC(c3ccccc3)n3c(nc4ccccc43)N2)cc1` (stereo unspecified) was tested, and the Potency was inconclusive: 56.2 µM [inhibitor, partial curve, poor fit].
`CN(C)C[C@@H]1CN(Cc2ccncc2)C[C@H]1NC(=O)c1cccc(C#N)c1` was tested, and the “activity change, negative = inhibition” value was inactive: 63.4%.
For `CC(NC(=O)CSc1nnc(-c2ccccc2)o1)c1ccc2c(c1)CCCC2` (stereo unspecified), the Potency was inconclusive: 31.6 µM [inhibitor, partial curve, poor fit].
For `CC1Nc2ncnc(N3CCN(c4ccccc4)CC3)c2N(Cc2ccc(Cl)cc2)C1=O` (stereo unspecified), the Potency was inconclusive: 22.4 µM [inhibitor, partial curve].
In the case of `CCOc1ccccc1Oc1c(C)oc2cc(OC(=O)C(C)C)ccc2c1=O`, the “activity change, negative = inhibition” value is reported as inactive: 35.2%.
With `Cc1ccc(-c2nnn(CC(=O)NCC3CC3)n2)o1` the “activity change, negative = inhibition” value was inactive: 1.85%.
In the case of `O=c1c2ccccc2sn1-c1ccc(S(=O)(=O)N2CCCCC2)cc1`, the Potency is reported as inconclusive: 0.141 µM [inhibitor, full curve, poor fit].
